Test results as given in ChEMBL document CHEMBL4316593 (Eur J Med Chem, 2019).
The source gives many values for each of these; only a part stands here.

Tests used:
Format in all cases: cell-based
Conditions in all cases: U-87MG ATCC
[1] = Inhibition of RTK/PI3K/AKT/mTOR signaling in human U87 cells assessed as down regulation of SCARA3 gene expression at cytotoxic IC50 measured after 48 hrs relative to control
[2] = Inhibition of RTK/PI3K/AKT/mTOR signaling in human U87 cells assessed as down regulation of CCNA2 gene expression at cytotoxic IC50 measured after 48 hrs relative to control
[3] = Inhibition of RTK/PI3K/AKT/mTOR signaling in human U87 cells assessed as down regulation of CEP55 gene expression at cytotoxic IC50 measured after 48 hrs relative to control
[4] = Inhibition of RTK/PI3K/AKT/mTOR signaling in human U87 cells assessed as up regulation of long intergenic non-protein coding RNA 511 gene expression at cytotoxic IC50 measured after 48 hrs relative to control
[5] = Inhibition of RTK/PI3K/AKT/mTOR signaling in human U87 cells assessed as down regulation of ANXA7 gene expression at cytotoxic IC50 measured after 48 hrs relative to control
[6] = Inhibition of RTK/PI3K/AKT/mTOR signaling in human U87 cells assessed as down regulation of IGHMBP2 gene expression at cytotoxic IC50 measured after 48 hrs relative to control
[7] = Inhibition of RTK/PI3K/AKT/mTOR signaling in human U87 cells assessed as down regulation of HIST1H4I gene expression at cytotoxic IC50 measured after 48 hrs relative to control
[8] = Inhibition of RTK/PI3K/AKT/mTOR signaling in human U87 cells assessed as up regulation of ANXA3 gene expression at cytotoxic IC50 measured after 48 hrs relative to control
[9] = Inhibition of RTK/PI3K/AKT/mTOR signaling in human U87 cells assessed as up regulation of zinc finger AN1-type containing 1 gene expression at cytotoxic IC50 measured after 48 hrs relative to control
[10] = Inhibition of RTK/PI3K/AKT/mTOR signaling in human U87 cells assessed as down regulation of SPTBN1 gene expression at cytotoxic IC50 measured after 48 hrs relative to control
[11] = Inhibition of RTK/PI3K/AKT/mTOR signaling in human U87 cells assessed as down regulation of RAPH1 gene expression at cytotoxic IC50 measured after 48 hrs relative to control
[12] = Inhibition of RTK/PI3K/AKT/mTOR signaling in human U87 cells assessed as down regulation of ZNF273 gene expression at cytotoxic IC50 measured after 48 hrs relative to control
[13] = Inhibition of RTK/PI3K/AKT/mTOR signaling in human U87 cells assessed as up regulation of EGF like domain multiple 7 gene expression at cytotoxic IC50 measured after 48 hrs relative to control
[14] = Inhibition of RTK/PI3K/AKT/mTOR signaling in human U87 cells assessed as down regulation of UBL3 gene expression at cytotoxic IC50 measured after 48 hrs relative to control
[15] = Inhibition of RTK/PI3K/AKT/mTOR signaling in human U87 cells assessed as up regulation of solute carrier family 7 member 5 gene expression at cytotoxic IC50 measured after 48 hrs relative to control
[16] = Inhibition of RTK/PI3K/AKT/mTOR signaling in human U87 cells assessed as up regulation of receptor-like tyrosine kinase gene expression at cytotoxic IC50 measured after 48 hrs relative to control
[17] = Inhibition of RTK/PI3K/AKT/mTOR signaling in human U87 cells assessed as down regulation of SNHG1 gene expression at cytotoxic IC50 measured after 48 hrs relative to control
[18] = Inhibition of RTK/PI3K/AKT/mTOR signaling in human U87 cells assessed as down regulation of HES1 gene expression at cytotoxic IC50 measured after 48 hrs relative to control
[19] = Inhibition of RTK/PI3K/AKT/mTOR signaling in human U87 cells assessed as up regulation of ZNF503 antisense RNA 1 gene expression at cytotoxic IC50 measured after 48 hrs relative to control
[20] = Inhibition of RTK/PI3K/AKT/mTOR signaling in human U87 cells assessed as up regulation of dysbindin domain containing 1 gene expression at cytotoxic IC50 measured after 48 hrs relative to control
[21] = Inhibition of RTK/PI3K/AKT/mTOR signaling in human U87 cells assessed as up regulation of adenosylmethionine decarboxylase 1 gene expression at cytotoxic IC50 measured after 48 hrs relative to control
[22] = Inhibition of RTK/PI3K/AKT/mTOR signaling in human U87 cells assessed as down regulation of C6orf1 gene expression at cytotoxic IC50 measured after 48 hrs relative to control
[23] = Inhibition of RTK/PI3K/AKT/mTOR signaling in human U87 cells assessed as up regulation of DKC1 gene expression at cytotoxic IC50 measured after 48 hrs relative to control
[24] = Inhibition of RTK/PI3K/AKT/mTOR signaling in human U87 cells assessed as down regulation of PTGR1 gene expression at cytotoxic IC50 measured after 48 hrs relative to control
[25] = Inhibition of RTK/PI3K/AKT/mTOR signaling in human U87 cells assessed as down regulation of RPA3 gene expression at cytotoxic IC50 measured after 48 hrs relative to control
[26] = Inhibition of RTK/PI3K/AKT/mTOR signaling in human U87 cells assessed as down regulation of SLC7A11 gene expression at cytotoxic IC50 measured after 48 hrs relative to control
[27] = Inhibition of RTK/PI3K/AKT/mTOR signaling in human U87 cells assessed as up regulation of EPH receptor B4 gene expression at cytotoxic IC50 measured after 48 hrs relative to control
[28] = Inhibition of RTK/PI3K/AKT/mTOR signaling in human U87 cells assessed as up regulation of midasin AAA ATPase 1 gene expression at cytotoxic IC50 measured after 48 hrs relative to control
[29] = Inhibition of RTK/PI3K/AKT/mTOR signaling in human U87 cells assessed as down regulation of WBP11 gene expression at cytotoxic IC50 measured after 48 hrs relative to control
[30] = Inhibition of RTK/PI3K/AKT/mTOR signaling in human U87 cells assessed as down regulation of BAG3 gene expression at cytotoxic IC50 measured after 48 hrs relative to control
[31] = Inhibition of RTK/PI3K/AKT/mTOR signaling in human U87 cells assessed as down regulation of BRPF1 gene expression at cytotoxic IC50 measured after 48 hrs relative to control
[32] = Inhibition of RTK/PI3K/AKT/mTOR signaling in human U87 cells assessed as up regulation of RPE65 gene expression at cytotoxic IC50 measured after 48 hrs relative to control

Structure (SMILES): CC(=O)C(=NNc1ccccc1C#N)C(C)=O
- log2FC [1]: -1.03
- log2FC [2]: -1.07
- log2FC [3]: -0.725
- log2FC [4]: 1.24
- log2FC [5]: -0.567
- log2FC [6]: -0.854
- log2FC [7]: -2.03
- log2FC [8]: 0.599
- log2FC [9]: 0.651
- log2FC [10]: -0.379
- log2FC [11]: -1.43
- log2FC [12]: -1.99
- log2FC [13]: 0.9
- log2FC [14]: -1.18
- log2FC [15]: 1.02
- log2FC [16]: 0.952
- log2FC [17]: -0.445
- log2FC [18]: -1.21
- log2FC [19]: 1.56
- log2FC [20]: 0.769
- log2FC [21]: 0.922
- log2FC [22]: -1.44
- log2FC [23]: 0.634
- log2FC [24]: -0.805
- log2FC [25]: -0.868
- log2FC [26]: -0.563
- log2FC [27]: 1.27
- log2FC [28]: 0.771
- log2FC [29]: -0.439
- log2FC [30]: -2.41
- log2FC [31]: -1.19
- log2FC [32]: 3.35
